Among all 320,000 compounds or so, about 22,000 (6.9%) were called active. Inconclusive results, whose numbers are uncertain, are shown with a selection of clear calls. The call rests on the fitted dose curve; in most records, active means well fitted inhibition curve with a large enough effect; inconclusive means small, poorly fitted or top-dose-only effect, or another doubt; inactive means no such curve, though single readings can be large or run the other way. Potencies of inconclusive entries are doubtful fits and often do not repeat.
assay: Primary qHTS for delayed death inhibitors of the malarial parasite plastid, 96 hour incubation; conditions: P. falciparum luciferase reporter growth; series mostly up to 28.7 µM
In short: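 Readout is luminescence from an integrated firefly luciferase in P. falciparum. Red cells, 2% hematocrit and 0.05% parasitemia final, were cultured with compound through two parasite generations (96 hours) at 37 C, 5% CO2.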
Potency means the concentration at half of the fitted maximal effect.

Row | Structure (SMILES) | Potency
1 | CCOc1ncccc1C(=O)OCc1ccc(C(=O)OC)cc1 | inactive
2 | COc1ccc(NC2=Nc3ccccc3CC2)cc1 | inconclusive: 20.8 µM [inhibitor, partial curve, poor fit]
3 | O=C(Nc1ccccc1C(=O)O)c1cccc(S(=O)(=O)Nc2ccc(Br)cc2)c1 | inactive
4 | CC(/C=N/n1c(-c2cccnc2)n[nH]c1=S)=C\c1ccco1 | inactive
5 | Cc1ccc(C)c2c(N)c3c(nc12)CCCCC3 (tested in a mixture with another compound) | inconclusive: 20.8 µM [inhibitor, partial curve, poor fit]
6 | O=C(CN(CC1CCCO1)C(=O)CNS(=O)(=O)c1ccc(F)cc1)NCc1ccc(F)cc1 (stereo not given) | inactive
7 | CCN(CC)S(=O)(=O)c1cccc(NC(=O)COc2ncnc3sccc23)c1 | inactive
8 | Cc1cc([N+](=O)[O-])cc2c1NC(=O)C2(O)N1CCOCC1 (stereo not given) | inconclusive: 9.28 µM [inhibitor, partial curve]
9 | O=C1NC(NS(=O)(=O)c2ccc(Cl)cc2)(C(F)(F)F)C(=O)N1c1ccccc1 (stereo not given) | inconclusive: 16.5 µM [inhibitor, partial curve, poor fit]
10 | C#CC[N+](C)(C)CCCCCCCCCC | inconclusive: 0.738 µM [inhibitor, full curve, poor fit]
11 | CSc1nc(C)cc(Oc2ccc(=O)[nH]n2)n1 | inactive
12 | Cc1[nH]n(-c2ccc(Cl)c(Cl)c2)c(=O)c1CCO | inconclusive: 5.22 µM [inhibitor, partial curve, poor fit]
13 | O=C(NN=C1CCCC1)c1ccc(O)cc1 | inconclusive: 10.4 µM [inhibitor, single point]
14 | COc1ccc(/C=C/C2=NC(=C\N(C)C)/C(=O)O2)cc1 | inactive
15 | O=C(Cc1ccc(Br)cc1)N/N=C/c1ccc(-c2cccc(C(=O)O)c2)o1 | inactive
16 | Cc1ccccc1OCC(=O)Nc1ccc(C(=O)Nc2ccccc2C(=O)O)cc1 | inconclusive: 14.7 µM [inhibitor, partial curve, poor fit]
17 | CCOC(=O)C1=C(c2ccccc2)NC(=O)NC1c1cc(OC)c(OC)c(OC)c1 (stereo not given) | inconclusive: 1.17 µM [inhibitor, full curve, poor fit]
18 | Cc1cc(C)n2ncc(S(=O)(=O)c3ccccc3)c2n1 | inconclusive: 10.4 µM [inhibitor, single point]
19 | COc1ccc(CCC(=O)Nc2cc3c4c(c2)CC(=O)N4CCC3)cc1 | inconclusive: 9.28 µM [inhibitor, single point]
20 | CN(CC(=O)Nc1ccccc1Cl)C(=O)COC(=O)c1cnccn1 | inactive
21 | CCN(CC)S(=O)(=O)c1ccc(N2CCN(c3ccccc3O)CC2)nc1 | active: 13.1 µM
22 | Cc1nnc(NC(=O)C(c2ccccc2)c2ccccc2)s1 | inconclusive: 10.4 µM [inhibitor, single point]
23 | O=C(NC1CCN(C(=O)N2c3ccccc3Sc3ccccc32)CC1)c1ccccc1Cl | inconclusive: 18.5 µM [inhibitor, single point]

Among those listed so far, 2 contain bromine:
Row | Structure (SMILES) | Potency
3 | O=C(Nc1ccccc1C(=O)O)c1cccc(S(=O)(=O)Nc2ccc(Br)cc2)c1 | inactive
15 | O=C(Cc1ccc(Br)cc1)N/N=C/c1ccc(-c2cccc(C(=O)O)c2)o1 | inactive

Next structures.

Row | Structure (SMILES) | Potency
24 | C=CCO/N=C(/C)c1ccc(Oc2cnccn2)cc1 | inactive
25 | COc1ccc(CN2CCNC(=O)C2CC(=O)NC2CCCCC2)c(OC)c1 (stereo not given) | active: 9.28 µM
26 | O=C1N(c2cccc3ccccc23)C(c2ccccc2)N2CCCN12 (stereo not given) | inconclusive: 13.1 µM [inhibitor, single point]
27 | O=C(CCN1CCN(c2ccc(Cl)cc2)CC1)Nc1ccccc1F | active: 2.94 µM
28 | O=C(COc1ccccc1Cl)N1CCc2ccccc21 | inactive
29 | COc1cccc(C(=O)NNc2c3ccccc3nc3ccccc23)c1 | active: 11.7 µM
30 | O=C(N1CCCC1)n1c(Cc2ccccc2)nc2ccccc21 | inactive
31 | Cc1cccc(N2CCN(C(=O)c3cccc(NC4=NC5CS(=O)(=O)CC5S4)c3)CC2)c1C (stereo not given) | inconclusive: 9.28 µM [inhibitor, partial curve]
32 | C=CCNC(=O)c1ccc(-c2nc(-c3ccc(Cl)c(Cl)c3)cs2)cc1 | inconclusive: 18.5 µM [inhibitor, partial curve, poor fit]
33 | CC1CC(C)CN(C(=O)CCS(=O)(=O)c2ccc3c(c2)NC(=O)CS3)C1 (stereo not given) | inconclusive: 18.5 µM [inhibitor, single point]
34 | CCOC(=O)c1sc(NC(=O)C2CCC2)cc1C | inconclusive: 11.7 µM [inhibitor, single point]
35 | CCCNC(=O)CSCc1nc(-c2ccc(SC)cc2)oc1C | inconclusive: 0.928 µM [inhibitor, partial curve, poor fit]
36 | Cc1cc(Nc2ccccc2)nc(N)n1 | inconclusive: 13.1 µM [inhibitor, single point]
37 | Cn1cc([N+](=O)[O-])c(C(=O)N/N=C/c2cc3c(cc2Br)OCO3)n1 | inactive
38 | COc1ccc(CCNC(=O)C(=O)NCC2OCCN2S(=O)(=O)c2ccccc2)cc1OC (stereo not given) | inconclusive: 0.0037 µM [inhibitor, full curve, poor fit]
39 | CN(CC(=O)N1CC=C(c2ccccc2)CC1)S(=O)(=O)c1ccc2c(c1)c(=O)n(C)c(=O)n2C | inconclusive: 7.38 µM [inhibitor, partial curve]
40 | COc1ccc(CNC(=S)NCc2ccc(Cl)cc2)cc1OC | inactive
41 | Cc1cccc(C)c1NC(=S)N(Cc1ccco1)C1CCN(C(C)C)CC1 | inconclusive: 11.7 µM [inhibitor, single point]
42 | Cc1ccc(/C=N/NC(=O)c2nnn(-c3nonc3N)c2CSc2ccc(Cl)cc2)cc1 | inconclusive: 13.1 µM [inhibitor, partial curve, poor fit]
43 | Cc1ccc(-n2nc3c(N4CCC(C(=O)N5CCN(C)CC5)CC4)nnc(C)c3c2C)cc1 | inconclusive: 14.7 µM [inhibitor, single point]
44 | COc1cc(OC)c(OC)cc1CNC(=O)c1ccc(S(=O)(=O)N2CCCCC2)cc1 | active: 5.22 µM
45 | Cc1ccc(S(=O)(=O)NCC(=O)N(CCc2ccccc2)CC(=O)NCc2ccco2)cc1 | inconclusive: 1.47 µM [inhibitor, partial curve]
